Reference: PubChem BioAssay AID2685 (National Center for Advancing Translational Sciences (NCATS), 2010)
About 2,100 (0.66%) of roughly 320,000 compounds were called active. This list was built around the results that the source calls inconclusive (neither active nor inactive); the mix of calls is not that of the screen. Calls follow the shape of the dose curve; as a rule, active = well fitted inhibition curve with a large enough effect in the signal ratio, with a control signal flat (not every such curve was filed as active); inconclusive = small, poorly fitted or top-dose-only effect, or effect the other way, or a change in a side signal; inactive = flat fitted curve, though single readings scatter; the % refers to the signal ratio. Potencies beside an inconclusive call are fits to weak or partial responses and may not hold up.

Experiment: qHTS Assay for Lipid Storage Modulators in Drosophila S3 Cells
Settings: BODIPY lipid droplet fluorescence, 18-24 h, cells fed with added oleic acid; lipid storage change, negative = inhibition: at 46.1 µM (top of the series) unless noted
Method in brief: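 Drosophila S3 cells loaded with oleic acid (400 uM, as added) and compounds at several concentrations; lipid droplets imaged by 488-nm laser-scanning cytometry, 500–530 nm intensity and object ratio to cell channel. Percent activity normalized to 20 uM Triacsin C.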
% is scaled to controls: 0 for no effect and ±100 for the full control effect; potency is read from the fitted curve at half-maximal effect.

SMILES | lipid storage change, negative = inhibition | Potency
COc1ccc(CCC(=O)Nc2nc3c(s2)CN(C)CC3)cc1OC | inconclusive: 38.5% | –
CS(=O)(=O)N1CCN(c2ccccc2NC(=O)Nc2cccc(Cl)c2)CC1 | – | inconclusive: 18.4 µM [falling, partial curve]
CC(C)CNC(=O)C(=O)NCC1OCCCN1S(=O)(=O)c1ccc2c(c1)OCCO2 (configuration not stated) | inconclusive: 14.9% | –
N#Cc1ccc(-c2cccnc2)nc1SCC(=O)c1ccccc1 | – | inconclusive: 29.1 µM [falling, single point]
C=CCNC(=O)CSc1nnc(-c2cccs2)o1 | inconclusive: 19% | –
Cc1ccc(S(=O)(=O)N(C)C)cc1NC(=O)COC(=O)c1ccc2c(c1)OCCO2 | inactive: -4.06% | –
CCOC(=O)c1c(CN(C)C)n(C)c2ccc(OC(C)=O)cc12 | – | inconclusive: 1.64 µM [activator, partial curve, poor fit]
CCN(CC)C1CC(=O)N(c2cccc(Cl)c2)C1=O (configuration not stated) | – | inconclusive: 29.1 µM [falling, single point]
N#CCC(=O)c1ccccc1Oc1ccc(Cl)cc1 | inconclusive: -68.9% | –
CCOC(=O)c1c(NC(=O)c2c(-c3ccccc3)noc2C)sc(C)c1-c1ccccc1 | – | inconclusive: 0.92 µM [rising, partial curve]
O=C(Nc1cc(C(F)(F)F)cc(C(F)(F)F)c1)c1ccc(Cn2cc(C(F)(F)F)ccc2=O)cc1 | inconclusive: -96.5% | –
O=S(=O)(Nc1ccc2c(c1)OCCO2)c1cnc[nH]1 | – | inconclusive: 29.1 µM [falling, single point]
CC(=O)Nc1cccc(-c2csc(N)n2)c1 | inconclusive: -31.5% [at 0.00295 µM] | –
O=C(CC1OC(=O)c2ccccc21)Nc1cccc(S(=O)(=O)N2CCCCCC2)c1 (configuration not stated) | – | inconclusive: 20.6 µM [falling, single point]
NCCNC(=O)c1c(O)c2cccc3c2n(c1=O)CCC3 | – | inconclusive: 2.59 µM [falling, single point]
O=C(Nc1cccc(C(=O)O)c1)/C(=C\c1ccc(F)cc1)NC(=O)c1ccco1 | – | inconclusive: 0.13 µM [falling, single point]
CCc1cc2c(-c3ccccc3)cc(=O)oc2cc1OC(=O)c1cccs1 | inconclusive: 11.6% | –
CN1CCN(C(=O)C(Cc2ccccc2)NS(=O)(=O)c2ccc3c(c2)CCC(=O)N3)CC1 (configuration not stated) | inconclusive: -48.1% | –
COc1ccc(S(=O)(=O)N2CCC(C(=O)NCCN3CCOCC3)CC2)cc1 | inconclusive: 60.2% | –
N/C(Cn1cncn1)=N\OC(=O)c1ccc(Cl)cc1Cl | – | inconclusive: 18.4 µM [falling, single point]
CCCOc1ccc(NC(=O)C2CC(=O)N/C(=N/N=C(C)/C=C/c3ccc(N(C)C)cc3)S2)cc1 (configuration not stated) | – | inconclusive: 29.1 µM [falling, partial curve, poor fit]
CC(c1cccnc1)N(C(=O)Nc1ccccc1)C1CCCCC1 (configuration not stated) | inconclusive: 7.36% [at 9.22 µM] | –
CCOc1cc(CNCCCN2CCOCC2)cc(Cl)c1OCC(=O)NC(C)(C)C | inconclusive: -2.22% | –
Cc1cc(Br)ccc1OCCN1CCCC1 | – | inconclusive: 11.6 µM [activator, partial curve]

One compound at a time, as listed above.
`CCOC(=O)c1c(CN(C)C)n(C)c2ccc(OC(C)=O)cc12` in the list: Potency: inconclusive: 1.64 µM [activator, partial curve, poor fit]
`CCCOc1ccc(NC(=O)C2CC(=O)N/C(=N/N=C(C)/C=C/c3ccc(N(C)C)cc3)S2)cc1` (configuration not stated) in the list: Potency: inconclusive: 29.1 µM [falling, partial curve, poor fit]
`CN1CCN(C(=O)C(Cc2ccccc2)NS(=O)(=O)c2ccc3c(c2)CCC(=O)N3)CC1` (configuration not stated) in the list: lipid storage change, negative = inhibition: inconclusive: -48.1%

More structures:

SMILES | lipid storage change, negative = inhibition | Potency
COC(=O)C(C)N(C#N)c1nc(C)cc(C)n1 (configuration not stated) | inconclusive: -17.3% | –
O=C(COC(=O)c1ccc[nH]c1=O)NCC12CC3CC(CC(C3)C1)C2 | inconclusive: 15.1% | –
O=C(C1CCCN(Cc2ccccc2F)C1)N1CCCC1 (configuration not stated) | inconclusive: 5.15% | –
O=C(Nc1ccccc1)N1CCC(C(=O)N2CCN(S(=O)(=O)c3cccc(F)c3)CC2)CC1 | – | inconclusive: 0.731 µM [activator, full curve, poor fit]
CC(=O)Nc1ccc(C(=O)/C=C/c2ccco2)cc1 | inactive: 9.95% | –
C=C(C)c1cccc(C(C)(C)NC(=O)Nc2cc(C)ccn2)c1 | – | inconclusive: 16.4 µM [falling, single point]
CCN1CCCC1CNC(=O)c1cc2cc(OC)c(OC)cc2[nH]1 (configuration not stated) | – | inconclusive: 2.59 µM [activator, partial curve, poor fit]
COc1ccc(Cl)cc1N1C(=O)[C@@H]2C(c3cccc(OC)c3OC)=NO[C@@H]2C1=O | – | inconclusive: 2.31 µM [falling, full curve, poor fit]
CCC(C)n1c(=S)[nH]c2c(sc3ccc([N+](=O)[O-])cc32)c1=O (configuration not stated) | inconclusive: 10.3% | –
Cc1ccc(S(=O)(=O)N2CCCC2C(=O)OCc2nc3ccccc3s2)cc1 (configuration not stated) | inconclusive: 11.8% | –
Cc1ccc(-c2nnc(SCC(=O)NC3CC3)o2)cc1 | – | active: 29.1 µM
CCn1c(COc2ccc(=O)n(-c3ccccc3)n2)nnc1SCc1ccc(C)cc1 | inconclusive: 23.3% | –
CC(=O)c1ccc(S(=O)(=O)N(Cc2cc3cc4c(cc3[nH]c2=O)OCCO4)CC2CCCO2)cc1 (configuration not stated) | inconclusive: -0.385% | –
COc1ccc(C(=O)CSc2ccc3nnc(-c4cccnc4)n3n2)cc1 | inactive: -5.62% | –
O=C(C1CC1)N1c2ccccc2Sc2ccccc21 | – | inconclusive: 0.291 µM [falling, full curve, poor fit]
S=C(Nc1ccccc1)N1N=CCC1c1ccccc1 (configuration not stated) | – | inconclusive: 2.31 µM [activator, partial curve]
COc1cc(NC(=S)N2CCN(S(=O)(=O)c3ccc(F)cc3)CC2)cc(OC)c1 | – | inconclusive: 29.1 µM [falling, single point]
c1ccc(-c2nnc(-c3ccccn3)s2)nc1 | inconclusive: 39.3% | –
N#Cc1cccc(Oc2ccc(S(=O)(=O)N3CCCC3)cn2)c1 | inconclusive | –
CCCn1c(-c2ccncc2)n[nH]c1=S | inconclusive: 17.6% | –
CCOC(=O)c1cc(C)sc1/N=C/C1C(=O)CCCC1=O | inconclusive: 26.5% | –
COc1ccc(CN2CCC(n3nccc3NC(=O)C3CC3)CC2)c(OC)c1OC | – | inconclusive: 4.11 µM [activator, full curve]
CCOC(=O)Nc1ccc2c(c1)N(C(=O)CCN(CC)CC)c1ccccc1S2=O (configuration not stated) | – | inconclusive: 29.1 µM [falling, single point]
Cc1ccc(NC(=O)COC(=O)C2CC2(Cl)Cl)cc1C (configuration not stated) | – | inconclusive: 4.61 µM [falling, single point]

SMILES | lipid storage change, negative = inhibition | Potency
Cc1ccc(SCc2[nH]nc3c2C2(C(=O)N(C)c4ccccc42)C(C#N)=C(N)O3)cc1 (configuration not stated) | – | inconclusive: 2.91 µM [falling, partial curve, poor fit]
S=C(Nc1ccccc1Cl)N(CCCN1CCOCC1)Cc1ccco1 | inconclusive: 15.4% | –
Cn1nccc1C(=O)N1CCN(c2cccc(C(F)(F)F)c2)CC1 | – | inconclusive: 25.9 µM [falling, single point]
CC(NC(=O)CN1CCN(c2ccccc2F)CC1)c1ccccc1 (configuration not stated) | – | inconclusive: 29.1 µM [activator, single point]
CCN(CC)CCOc1ccc2nc(N(C)C)sc2c1 | inconclusive: -19.3% | –
CC1CCCC(C)N1C(=O)COC(=O)C1CCN(S(=O)(=O)c2c(Cl)cccc2Cl)CC1 (configuration not stated) | inconclusive: 18% | –
COc1ccc(-c2nc(NC(=O)C3CCN(c4nc5ccccc5o4)CC3)sc2C)cc1 | inconclusive: 16.3% | –
COc1ccccc1NC(=O)CSc1nnc(COc2ccccc2C)o1 | – | inconclusive: 5.8 µM [falling, single point]
N#CC1=C(N)Oc2cc(O)c(Cl)cc2C1c1cccnc1 (configuration not stated) | – | inconclusive: 0.58 µM [activator, partial curve, poor fit]
COc1ccc(-c2c(-c3ccc(OC)cc3O)nc(C)nc2C(F)(F)F)cc1 | inconclusive: 23.1% | –
Cc1cccc(C)c1NC(=O)CNC(=O)C(Cc1ccccc1)NC(=O)c1ccccc1 (configuration not stated) | – | inconclusive: 4.61 µM [activator, partial curve, poor fit]
O=C(O)/C(=C\c1cccc(F)c1)c1ccc(S(=O)(=O)N2CCCC2)s1 | inconclusive: -2.34% | –
O=C(OCc1ccccn1)C1CCN(C(=O)c2ccc(Cl)cc2)CC1 | inconclusive | –
CCOC(=O)N1CCC(Nc2ncnc3c2cnn3-c2ccc(C)cc2C)CC1 | inconclusive: -24.1% | –
CCN1CCN(C(=O)C(=O)c2cn(CC(=O)N3CCCC3)c3ccccc23)CC1 | – | inconclusive: 0.326 µM [falling, full curve, poor fit]
OCCCc1nc2n(n1)C(c1ccccc1)C=C(c1ccccc1)N2 (configuration not stated) | – | inconclusive: 2.06 µM [activator, partial curve]
CC(CN1CCCCC1)OC(=O)c1ccc(Cl)cc1 (configuration not stated) | – | inconclusive: 0.0065 µM [falling, full curve, poor fit]
Cn1cnnc1Sc1ccc(/C=C/C(=O)c2ccc(O)cc2)cc1[N+](=O)[O-] | – | inconclusive: 29.1 µM [cytotoxic, single point]
N=c1c(C(=O)NCCN2CCOCC2)cc2c(=O)n3ccccc3nc2n1CCCN1CCOCC1 | – | active: 7.31 µM
COc1ccc(CC(=O)NCc2ccccc2)cc1OC | inconclusive: -11.3% | –
COc1ccc(N(C(=O)c2snc(C(N)=O)c2N)C(C(=O)NCc2ccc(F)cc2)c2ccc(O)cc2)cc1 (configuration not stated) | inconclusive: 22% | –
O=C(CSc1nnc(NC2CC2)s1)NN1C(=O)NC2(CCCCC2)C1=O | inconclusive: 9.57% | –
Cc1ccc(Cn2ncc(Cl)c(Cl)c2=O)cc1 | inactive: -3.59% | –
CSCCC(NS(=O)(=O)c1ccc(C)cc1)C(=O)NC1CCCCC1 (configuration not stated) | – | inconclusive: 0.13 µM [falling, full curve, poor fit]
